# Test results taken from PubChem BioAssay AID493014 (National Center for Advancing Translational Sciences (NCATS), 2011).
# The list shows a part of the results. The main result of the screen is listed elsewhere. These columns were measured beside it and carry no call. Compounds called inactive in the main read-out are mostly missing here. Words in brackets tell the shape of the fitted curve; partial curves, single points and poor fits give uncertain potencies.
# Test: qHTS Assay to Find Inhibitors of Chronic Active B-Cell Receptor Signaling
# Details: ABC-DLBCL IkBa-CBG/CBR reporter, luminescence ratio (green luciferase fused to IkBa over red control in TMD8 lymphoma cells), 4 h
# Summary of the method: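 TMD8 ABC-DLBCL cells carrying doxycycline-inducible green luciferase fused to IkappaBalpha plus unfused red luciferase were exposed to compounds (up to 46 uM) for 4 hrs at 37C. Activity came from the overlap-corrected green/red luminescence ratio.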
# [1] = measured here: CBR red luminescence, cell number
# [2] = measured here: IkBa-CBG green luminescence
Compound,AC50 [1],AC50 [2]
COc1ccccc1CNC(=O)c1ccccc1OCc1ccc(F)cc1,"1.64 µM [falling, full curve]",
CCN1C(=O)c2cccc3c(S(=O)(=O)Nc4ccccc4O)ccc1c23,"20 µM [rising, partial curve]","10 µM [falling, partial curve]"
CCc1cc(C(=O)NNC(=S)Nc2ccccc2C)cs1,"0.013 µM [falling, full curve, poor fit]",
Cc1ccc(-c2ccc(/C=N/n3cnnc3)o2)cc1,"3.16 µM [rising, full curve, poor fit]",
Cc1ccc(S(=O)(=O)N(C)CC(=O)NC2CCCC2)cc1,"32.6 µM [falling, single point]",
O=S(=O)(NCCc1ccccc1)c1ccc(Cl)nc1,"32.6 µM [rising, single point]",
NC(=O)c1nsnc1-c1ccccc1O,"9.2 µM [falling, partial curve, poor fit]",
CC1(c2ccccc2)NC(=O)N(CC(=O)Nc2nc(-c3ccccn3)cs2)C1=O (configuration not stated),"16.4 µM [falling, partial curve, poor fit]",
CCOC(=O)C1=C(c2ccccc2)OC(N)=C(C#N)C1c1ccc(Br)s1 (configuration not stated),"13 µM [falling, partial curve, poor fit]",
Cc1ccc(-c2csc(NC(=O)c3ccc(Br)cc3)c2C(=O)O)cc1,"0.112 µM [falling, full curve]",
CCOC(=O)c1ccc(NC(=O)c2cccc3c2C(=O)N(CC2CCCO2)C3)cc1 (configuration not stated),"0.891 µM [rising, full curve, poor fit]",
CC(=O)N/C(=C\c1ccccc1)C(=O)OC/C=C/c1ccccc1,"11.2 µM [falling, partial curve]",
C/C(=N\NC(=O)c1ccccc1N)c1ccc(NC(=O)Cc2ccccc2)cc1,"35.5 µM [falling, partial curve, poor fit]",
Clc1ccc(OCc2nc3ccccc3[nH]2)cc1,"25.1 µM [falling, single point]",
COc1ccc(NC(=O)c2cc3ccccc3o2)cn1,"17.8 µM [falling, single point]",
Brc1ccc(-c2csc(N3CCCCC3)n2)cc1,"0.103 µM [falling, full curve, poor fit]",
Oc1ccc(C=Nc2cccc3ncccc23)c(O)c1,"14.6 µM [rising, partial curve, poor fit]",
CCNc1nc(NC(C)C)nc(Oc2ccc(/C=N/O)cc2)n1,"25.9 µM [rising, single point]",
Cc1ccc(C2(C(F)(F)F)NC(=O)N3C(=C2C#N)Nc2ccccc23)cc1 (configuration not stated),"0.13 µM [falling, partial curve, poor fit]",
CC(=O)c1ccc(NC(=O)C(C)OC(=O)/C=C/c2ccco2)cc1 (configuration not stated),"29.1 µM [rising, single point]","18.4 µM [falling, single point]"
COc1ccc(C2(C(=O)c3ccccc3)C(=O)c3ccccc3C2=O)cc1,"2.82 µM [rising, single point]",

Compound,AC50 [1],AC50 [2]
Cc1ccc(C)c(N2CCN(S(=O)(=O)c3ccc4c(c3)C(C)(C)C(=O)N4C)CC2)c1,,"11.2 µM [rising, partial curve, poor fit]"
O=C1C=C(NCc2ccco2)C2(CCCCC2)O1,"4.61 µM [rising, partial curve, poor fit]",
Cc1cc(C(=O)CSc2n[nH]c(N)n2)c(C)n1-c1cc(F)ccc1F,"11.6 µM [rising, partial curve, poor fit]",
COc1ccc(-n2c(Cn3c(=O)sc4ccccc43)nnc2SCC(=O)N2CCCC2)cc1,"4.61 µM [rising, partial curve]",
CC1CCCC(NC(=O)C2CCN(S(=O)(=O)N3CCC4(CC3)OCCO4)CC2)C1C (configuration not stated),"3.55 µM [rising, partial curve, poor fit]",
CCC(=O)Nc1ccc2c(c1)ncn2-c1ccccc1C,,"35.5 µM [falling, partial curve, poor fit]"
O=C(COc1ccc(Br)cc1CO)Nc1ccc(S(=O)(=O)N2CCCCC2)cc1,"23.1 µM [falling, single point]",
O=C(NNC(=O)c1sc2ccccc2c1Cl)Nc1ccc(Cl)cc1,"12.6 µM [rising, single point]",
O=C(Nc1cccc(Br)c1)c1ccccc1-c1ccccc1,"6.51 µM [falling, full curve, poor fit]",
COc1ccc2[nH]c(C)c(CCNC(=S)Nc3cccc(C)c3)c2c1,"1.3 µM [rising, partial curve, poor fit]",
CN1N=C(c2ccc(F)c(F)c2)CSC1=NCc1ccccc1,"1 µM [rising, partial curve, poor fit]",
O=[N+]([O-])c1cccc(N=NN(CCO)c2cccc([N+](=O)[O-])c2)c1,"14.6 µM [rising, partial curve]",
Cc1ccc(NC(=O)c2ccc(NS(=O)(=O)c3cccc4cccnc34)cc2)cc1,"17.8 µM [falling, single point]",
COc1ccc(N2C(=O)C(Cl)=C(N3CCCC3)C2=O)cc1,"35.5 µM [rising, single point]",
COc1ccc(OC)c(C(C[N+](=O)[O-])c2c(C)cc3ccccn23)c1 (configuration not stated),"3.55 µM [falling, full curve]",
O=C(/C=C/c1ccc([N+](=O)[O-])cc1)NCCc1ccccc1,"14.1 µM [rising, single point]",
COc1ccc2c(c1)OC(=O)CC2c1cc(OC)c(OC)c(OC)c1 (configuration not stated),"25.9 µM [rising, single point]","23.1 µM [falling, partial curve, poor fit]"
O=C(CCNc1n[nH]c(=O)[nH]c1=O)N/N=C/c1ccc(C(F)(F)F)cc1,"0.708 µM [rising, full curve, poor fit]",
CCNS(=O)(=O)c1ccc(NC(=O)Nc2cccc(OC)c2)cc1,"18.4 µM [falling, single point]",
Cc1oc(-c2ccc(Cl)cc2)cc1C(=O)/C(C#N)=C/Nc1ccccc1,"2.82 µM [rising, partial curve]",
COc1ccc(/C=N/NC(=O)CCn2cnc(-c3ccccc3)c2-c2ccccc2)cc1OC,"9.2 µM [rising, partial curve, poor fit]","16.4 µM [falling, partial curve]"

# Molecules listed so far that contain a cyano group (three):
Compound,AC50 [1],AC50 [2]
CCOC(=O)C1=C(c2ccccc2)OC(N)=C(C#N)C1c1ccc(Br)s1 (configuration not stated),"13 µM [falling, partial curve, poor fit]",
Cc1ccc(C2(C(F)(F)F)NC(=O)N3C(=C2C#N)Nc2ccccc23)cc1 (configuration not stated),"0.13 µM [falling, partial curve, poor fit]",
Cc1oc(-c2ccc(Cl)cc2)cc1C(=O)/C(C#N)=C/Nc1ccccc1,"2.82 µM [rising, partial curve]",

# More results.

Compound,AC50 [1],AC50 [2]
COc1ccc(Nc2cc(C(=O)N3CCc4ccccc4C3)c3ccccc3n2)c(OC)c1,"17.8 µM [falling, single point]",
Brc1ccc(OCc2ccccc2)c(CNCc2ccncc2)c1,"35.5 µM [falling, single point]",
CCOC(=O)c1c(OCC)[nH]c2ccc(O)cc12,"0.82 µM [falling, full curve, poor fit]",
CCN(CCNC(=O)c1ccc2nc(-c3ccccc3NC(C)=O)c(=O)[nH]c2c1)c1ccccc1,"10.3 µM [falling, partial curve, poor fit]",
CCNC(=S)N/N=C/c1sc(N2CCCCC2)nc1-c1cccs1,"6.51 µM [falling, single point]",
CCOc1ccccc1NC(=O)CN1CCC(C(=O)c2ccc(OC)cc2)CC1,"6.31 µM [rising, single point]",
CCOC(=O)c1c(C)[nH]c(C)c1C(=O)COc1ncnc2cc([N+](=O)[O-])ccc12,"10 µM [falling, partial curve]",
CCCCNc1c([N+](=O)[O-])cc(C)cc1[N+](=O)[O-],"25.1 µM [rising, partial curve]",
CC(=O)Nc1ccc(NC(=O)C(C)OC(=O)CCCN2C(=O)c3cccc4cccc(c34)C2=O)cc1 (configuration not stated),"3.66 µM [rising, full curve]",
CSC(=NNC(=O)c1ccc(O)cc1)SC,"10.3 µM [falling, partial curve, poor fit]",
COc1ccc(NC(=S)NC(NC(C)=O)C(Cl)(Cl)Cl)c([N+](=O)[O-])c1 (configuration not stated),"8.2 µM [falling, partial curve, poor fit]",
O=C1C=C(c2ccc3ncccc3c2)C[C@@H](c2ccc(Cl)cc2)C1,"29.1 µM [falling, single point]",
COc1ccc2c(C(=O)c3ccc(C)cc3)n(Cc3ccc(C(N)=O)cc3)[n+]([O-])c2c1,"1.03 µM [falling, full curve]",
COc1ccc(/C=N/NC(=O)c2ccc(F)cc2)cc1CN1CCc2cc(OC)c(OC)cc2C1C (configuration not stated),"5.62 µM [falling, partial curve]",
COc1ccc(NC(=O)CCNC(C)=O)cc1NS(=O)(=O)c1ccc(F)cc1,"3.26 µM [falling, partial curve, poor fit]",
Cn1ccnc1Sc1cc(NCCCO)c([N+](=O)[O-])c2nonc12,"20 µM [falling, partial curve, poor fit]",
COc1cccc(C(=O)N/N=C/c2ccc(OC)c(COc3ccccc3C(N)=O)c2)c1,"7.08 µM [rising, partial curve]",
COc1ccc(OC)c(S(=O)(=O)N2Cc3ccccc3CC2C(=O)Nc2nccs2)c1 (configuration not stated),"0.82 µM [rising, full curve, poor fit]",
Cc1cccc(Nc2nnc(SC/C(O)=C(\C#N)c3nc4ccccc4[nH]3)s2)c1,"6.51 µM [rising, full curve]","29.1 µM [falling, single point]"
CC(C(=O)Nc1ccccc1-c1ccccc1)N1CCN(S(=O)(=O)c2ccccc2)CC1 (configuration not stated),"1.3 µM [falling, full curve]",
